{"sequences": {"note": "By UniProt entry, the sequences of proteins in these tests, tags left out. Where a name states a change or a piece, a line headed by the entry shows the natural chain unless it says otherwise.", "UniProt O60674": "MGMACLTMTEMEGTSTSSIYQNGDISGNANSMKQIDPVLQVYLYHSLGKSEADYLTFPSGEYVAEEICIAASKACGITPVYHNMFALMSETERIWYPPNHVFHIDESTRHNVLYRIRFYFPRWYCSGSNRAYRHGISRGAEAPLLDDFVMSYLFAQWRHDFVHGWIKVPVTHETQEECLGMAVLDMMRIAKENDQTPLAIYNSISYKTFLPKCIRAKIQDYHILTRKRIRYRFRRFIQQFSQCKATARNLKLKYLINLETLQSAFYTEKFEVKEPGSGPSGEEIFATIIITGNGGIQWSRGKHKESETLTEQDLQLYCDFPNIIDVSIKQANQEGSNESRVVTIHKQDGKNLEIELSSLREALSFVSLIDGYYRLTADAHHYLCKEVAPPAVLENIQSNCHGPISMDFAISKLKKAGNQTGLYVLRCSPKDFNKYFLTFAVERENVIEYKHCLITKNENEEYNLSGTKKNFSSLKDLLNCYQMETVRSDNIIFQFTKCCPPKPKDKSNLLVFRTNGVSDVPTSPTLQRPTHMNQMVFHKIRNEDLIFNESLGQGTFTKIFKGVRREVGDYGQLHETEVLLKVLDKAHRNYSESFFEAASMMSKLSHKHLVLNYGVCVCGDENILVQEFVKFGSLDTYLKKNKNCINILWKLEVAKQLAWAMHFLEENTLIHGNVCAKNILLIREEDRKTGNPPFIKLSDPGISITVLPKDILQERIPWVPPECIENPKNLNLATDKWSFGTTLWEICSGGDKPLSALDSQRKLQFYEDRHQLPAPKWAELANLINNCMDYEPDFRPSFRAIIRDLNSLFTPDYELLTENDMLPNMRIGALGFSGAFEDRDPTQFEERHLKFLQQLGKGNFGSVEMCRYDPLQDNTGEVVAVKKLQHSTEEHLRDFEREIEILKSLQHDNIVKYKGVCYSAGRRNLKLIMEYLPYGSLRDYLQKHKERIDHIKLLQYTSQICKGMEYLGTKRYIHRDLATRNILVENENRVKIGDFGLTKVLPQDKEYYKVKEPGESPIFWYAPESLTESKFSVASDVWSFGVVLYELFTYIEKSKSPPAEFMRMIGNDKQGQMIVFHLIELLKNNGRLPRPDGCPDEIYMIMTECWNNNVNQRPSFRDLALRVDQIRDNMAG", "UniProt Q9BSY9": "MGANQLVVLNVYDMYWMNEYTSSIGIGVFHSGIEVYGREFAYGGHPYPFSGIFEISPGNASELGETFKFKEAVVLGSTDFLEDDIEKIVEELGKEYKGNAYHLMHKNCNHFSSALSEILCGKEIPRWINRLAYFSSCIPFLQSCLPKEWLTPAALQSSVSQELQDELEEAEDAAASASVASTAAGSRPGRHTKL", "UniProt P08238": "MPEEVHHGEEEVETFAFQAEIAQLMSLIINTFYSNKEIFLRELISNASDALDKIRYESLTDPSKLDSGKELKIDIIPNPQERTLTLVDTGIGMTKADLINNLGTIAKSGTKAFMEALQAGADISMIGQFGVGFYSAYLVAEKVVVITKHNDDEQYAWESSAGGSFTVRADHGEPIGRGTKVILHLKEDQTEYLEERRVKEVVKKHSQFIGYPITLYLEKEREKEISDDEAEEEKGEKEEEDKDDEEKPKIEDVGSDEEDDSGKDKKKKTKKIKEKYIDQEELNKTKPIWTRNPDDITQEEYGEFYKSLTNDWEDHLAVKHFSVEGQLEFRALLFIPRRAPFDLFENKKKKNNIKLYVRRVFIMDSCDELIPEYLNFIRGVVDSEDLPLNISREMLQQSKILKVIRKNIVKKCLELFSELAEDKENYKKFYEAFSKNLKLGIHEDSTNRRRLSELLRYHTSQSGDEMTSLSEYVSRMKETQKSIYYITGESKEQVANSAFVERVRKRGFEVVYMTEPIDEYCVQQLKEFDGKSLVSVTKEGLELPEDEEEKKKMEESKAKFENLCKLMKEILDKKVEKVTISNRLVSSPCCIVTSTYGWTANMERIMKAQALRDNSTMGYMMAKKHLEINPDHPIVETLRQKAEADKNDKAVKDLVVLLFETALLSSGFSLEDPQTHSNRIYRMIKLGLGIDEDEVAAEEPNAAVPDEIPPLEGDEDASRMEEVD"}, "source": "paper PMC12866797", "about": "“Targeting DESI2 as a Novel Therapeutic Strategy for JAK2‐Mutant Leukemias” (Advanced Science, 2025)", "molecular_target": "JAK2-V617F (endogenous, HEL cells) (human (endogenous in HEL)) (UniProt O60674)", "test": "affinity purification with mass spectrometry; anti-JAK2 or IgG immunoprecipitation from lysates of HEL (JAK2-V617F) and K562 (JAK2-WT) cells, LC-MS of the co-precipitated proteins", "note": "Results are given in words; binding and its absence hold for the method and conditions named. In cells and extracts the contact can be indirect. These calls come from enrichment with a bait or labelling near it, and not all partners need be listed."}
{"substance": "DESI2 (endogenous, human cell lines) (from UniProt Q9BSY9 1-194) (enzyme)", "values": [{"measurement": "binding", "result": "binds"}]}
{"substance": "HSP90AB1 (endogenous, HEL cells) (from UniProt P08238 1-724)", "values": [{"measurement": "binding", "result": "binds"}]}
